# According to PubChem BioAssay AID1347075 (National Center for Advancing Translational Sciences (NCATS), 2019):
# The campaign covered roughly 400,000 compounds. About 5,500 (1.4%) were called active. The inconclusive results got no clear call from the source; some entries with a clear call stand among them for comparison. The call rests on the fitted dose curve; in most records, active means well fitted cell-killing curve with a large enough effect; inconclusive means small, poorly fitted or top-dose-only effect, or effect the other way; inactive means flat fitted curve, though single readings scatter. Where the call is inconclusive, the potency comes from a doubtful curve fit.
# Test: qHTS assay for MDR1-selective chemotherapeutics: Primary screen using the parental adenocarcinoma cell KB-3-1; further: nearly all actives have a fitted effect of over 60% in size
# Conditions: KB-3-1 viability, CellTiter-Glo ATP luminescence, 72 h; activity change, negative = cytotoxic: at 46.1 µM (top of the series)
# Method in brief: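 Parental KB-3-1 adenocarcinoma cells in phenol-red-free DMEM with 10% FBS were pin-treated with compounds at several concentrations, incubated 72 h at 37 °C, and viability read by CellTiter-Glo luminescence; concentration-effect curves were fitted after normalization.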
# On the % scale 0 is the no-effect control and ±100 the full control effect; potency means the concentration at half of the fitted maximal effect.
Compound,Potency,"activity change, negative = cytotoxic"
CCOC(=O)c1c(-c2ccc(OC)cc2)csc1NC(=O)CCN1C(=O)c2ccccc2C1=O,inactive,–
Cc1ccc(S(=O)(=O)N(CC(=O)NCCc2ccc(Cl)cc2)c2ccccc2C)cc1,inactive,–
O=C(NNc1cc(N2CCOCC2)nc(N2CCOCC2)n1)c1ccc([N+](=O)[O-])cc1,inactive,–
CC(=O)c1ccc(NC(=O)c2nc(-c3ccc(C)cc3)n3c2CCCCC3)cc1,"inconclusive: 29.1 µM [cytotoxic, single point]",–
O=C(NCCC1CCCCN1S(=O)(=O)c1ccc(Cl)cc1)C(=O)NCCN1CCOCC1 (centres undefined),–,inconclusive: -26%
Cc1ccccc1C(=O)N1CCN(c2ccc(NC(=O)c3ccc4c(c3)OCCO4)cc2)CC1,"inconclusive: 25.9 µM [cytotoxic, partial curve, poor fit]",–
COCCCn1c(=O)c2ccccc2n(CC(=O)Nc2ccc3c(c2)OCCO3)c1=O,inactive,–
CCN(CC)S(=O)(=O)c1ccc(-c2ccc(S(=O)(=O)N(CC)CC)cc2)cc1,"inconclusive: 16.4 µM [cytotoxic, single point]",–
COc1cc(OC)c(/C=C/c2nccc3ccccc23)c(OC)c1,"inconclusive: 2.59 µM [cytotoxic, full curve, poor fit]",–
COc1nc(Nc2cccc(C)c2)nc(N2CCCCC2)n1,inactive,–
COC(=O)c1cc2nc(-c3ccccc3)cc(C)n2n1,inactive,–
O=C(Cc1csc(Nc2nc(=S)[nH]c3ccccc23)n1)N1CCN(c2cccc(C(F)(F)F)c2)CC1,active: 13 µM,–
O=C(c1cccc(NS(=O)(=O)c2ccc(F)c(F)c2)c1)N1CCN(C(c2ccccc2)c2ccccc2)CC1,"inconclusive: 18.4 µM [cytotoxic, single point]",–
Cc1ccc(NC(=O)c2ccccc2F)cc1S(=O)(=O)N1CCCCCC1,inactive,–
CC(=O)Nc1ccc(-c2ccnc3c2CC(C)(C(=O)NCc2ccncc2)O3)cc1 (centres undefined),inactive,–
C=CCNC(=O)C(=O)NCCOc1ccccc1Cl,active: 7.31 µM,–
O=C(CN(Cc1ccc(Br)cc1)S(=O)(=O)c1ccccc1)NCC1CCCO1 (centres undefined),inactive,–
CC[n+]1ccc(/C=C/c2c[nH]c3ccccc23)cc1,active: 1.84 µM,–
O=C(/C=C/c1ccccc1Br)c1ccc2c(c1)OCO2,"inconclusive: 25.9 µM [cytotoxic, single point]",–
CC(C)(C)[C@H]1CCC(=O)N(CCSc2ccc(Br)cc2)CC1,inactive,–
Cc1cccc(-n2ncc3c(NCCCO)ncnc32)c1,inactive,–
COc1ccc(-c2cc(C)no2)cc1S(=O)(=O)N1CCN(c2ccccc2F)CC1,"inconclusive: 29.1 µM [cytotoxic, partial curve, poor fit]",–
Cc1c(C(=O)Nc2ccc3c4c(cccc24)CC3)cccc1[N+](=O)[O-],"inconclusive: 20.6 µM [cytotoxic, partial curve, poor fit]",–
C/C(=N\NC(=O)c1ccc(F)cc1)c1ccc(N2CCOCC2)cc1,inactive,–
Cc1ccc(N2CCN(S(=O)(=O)c3ccc(Cl)s3)CC2C)cc1 (centres undefined),inactive,–

Compound,Potency,"activity change, negative = cytotoxic"
CC1CCN(CCCCOc2ccc(C(C)(C)C)cc2)CC1,"inconclusive: 29.1 µM [cytotoxic, single point]",–
COc1ccc(Cl)cc1C(=O)OCC(=O)NCc1cccs1,"inconclusive: 23.1 µM [cytotoxic, partial curve, poor fit]",–
COc1cccc(NC(=O)C2(C)CCN2Cc2ccc(-c3ccccc3)o2)c1 (centres undefined),"inconclusive: 25.9 µM [cytotoxic, single point]",–
COCCNC(=O)C1CCN(c2nc3ccccc3nc2C(F)(F)F)CC1,inactive,–
CCN1C(=O)Nc2cccc3cccc1c23,"inconclusive: 0.291 µM [cytotoxic, full curve, poor fit]",–
CCCCc1nc2sc3c(=O)[nH]c(=S)[nH]c3c2c2c1CCC2,inactive,–
CC(=O)Nc1ccc(CN2CCc3c([nH]c4ccccc34)C2c2ccccn2)cc1 (centres undefined),"inconclusive: 25.9 µM [cytotoxic, single point]",–
C/C(=N\O)c1ccc(Cl)c(Cl)c1,"inconclusive: 23.1 µM [cytotoxic, single point]",–
COc1ccccc1NC(=S)N(Cc1ccco1)Cc1cc2cc(C)cc(C)c2[nH]c1=O,active: 6.51 µM,–
Cc1ccc(NC(=O)c2ccc(NC(=O)c3ccccc3)cc2)cc1C,active: 23.1 µM,–
CC1Cc2ccccc2N1C(=O)COc1nc2ccccc2nc1N1CCOCC1 (centres undefined),inactive,–
CCC(/C=N/Nc1ccc(S(=O)(=O)N2CCCC2)cc1[N+](=O)[O-])CC,"inconclusive: 29.1 µM [rising, single point]",–
COc1ccc(C2C3=C(CCCC3=O)Nc3nc(SCc4ccccc4)nn32)cc1OC (centres undefined),"inconclusive: 29.1 µM [cytotoxic, single point]",–
C=CCn1c(NC(=O)CC)c(C(=O)OCC)sc1=S,inactive,–
Oc1c(CN2CCc3ccccc3C2)cc(Cl)c2cccnc12,"inconclusive: 23.1 µM [cytotoxic, single point]",–
Cc1ccc(P(=O)(CSC(=N)N)c2ccc(C)cc2)cc1,"inconclusive: 23.1 µM [cytotoxic, partial curve, poor fit]",–
COc1ccc(C)cc1N/C(N)=N/c1nc(C)cc(C)n1,inactive,–
Cc1nc2nc(-c3ccccc3)nn2c(C)c1Cl,"inconclusive: 20.6 µM [cytotoxic, partial curve, poor fit]",–
O=C(N/N=C\c1ccc([N+](=O)[O-])s1)c1cncc(Br)c1,active: 5.8 µM,–
Cn1c(=O)c2c(nc(N/N=C/c3ccc(OC(=O)c4ccco4)cc3)n2Cc2ccccc2)n(C)c1=O,"inconclusive: 23.1 µM [cytotoxic, single point]",–
CCc1ccc(C(C(=O)NCc2ccccc2)N(C(=O)c2csnn2)C2CC2)cc1 (centres undefined),"inconclusive: 11.6 µM [rising, single point]",–
CCN(C)C1CN(Cc2cn(CCCC(=O)OC)nn2)S(=O)(=O)C1 (centres undefined),inactive,–
COc1cc(OC)cc(C(=O)c2c(C)c(C#N)c3ccccn23)c1,active: 5.17 µM,–
COC(=O)C1=C(C(=O)OC)[C@@H]2Nc3ccccc3[C@@]23C[C@@H](C(=O)OC)N(C(=O)CC(C)C)C3=N1,"inconclusive: 20.6 µM [rising, partial curve, poor fit]",–
Cc1nn(-c2ccccn2)c2c1C(c1ccccc1Cl)C1=C(N2)c2ccccc2C1=O (centres undefined),"inconclusive: 16.4 µM [cytotoxic, partial curve]",–

# Part of the list above, reformatted:
Compound | Potency | activity change, negative = cytotoxic
COc1cccc(NC(=O)C2(C)CCN2Cc2ccc(-c3ccccc3)o2)c1 (centres undefined) | inconclusive: 25.9 µM [cytotoxic, single point] | –
COCCNC(=O)C1CCN(c2nc3ccccc3nc2C(F)(F)F)CC1 | inactive | –
CCN1C(=O)Nc2cccc3cccc1c23 | inconclusive: 0.291 µM [cytotoxic, full curve, poor fit] | –
CCCCc1nc2sc3c(=O)[nH]c(=S)[nH]c3c2c2c1CCC2 | inactive | –
CC(=O)Nc1ccc(CN2CCc3c([nH]c4ccccc34)C2c2ccccn2)cc1 (centres undefined) | inconclusive: 25.9 µM [cytotoxic, single point] | –
C/C(=N\O)c1ccc(Cl)c(Cl)c1 | inconclusive: 23.1 µM [cytotoxic, single point] | –
COc1ccccc1NC(=S)N(Cc1ccco1)Cc1cc2cc(C)cc(C)c2[nH]c1=O | active: 6.51 µM | –
Cc1ccc(NC(=O)c2ccc(NC(=O)c3ccccc3)cc2)cc1C | active: 23.1 µM | –
CC1Cc2ccccc2N1C(=O)COc1nc2ccccc2nc1N1CCOCC1 (centres undefined) | inactive | –
CCC(/C=N/Nc1ccc(S(=O)(=O)N2CCCC2)cc1[N+](=O)[O-])CC | inconclusive: 29.1 µM [rising, single point] | –
COc1ccc(C2C3=C(CCCC3=O)Nc3nc(SCc4ccccc4)nn32)cc1OC (centres undefined) | inconclusive: 29.1 µM [cytotoxic, single point] | –
C=CCn1c(NC(=O)CC)c(C(=O)OCC)sc1=S | inactive | –
Oc1c(CN2CCc3ccccc3C2)cc(Cl)c2cccnc12 | inconclusive: 23.1 µM [cytotoxic, single point] | –
Cc1ccc(P(=O)(CSC(=N)N)c2ccc(C)cc2)cc1 | inconclusive: 23.1 µM [cytotoxic, partial curve, poor fit] | –
COc1ccc(C)cc1N/C(N)=N/c1nc(C)cc(C)n1 | inactive | –
Cc1nc2nc(-c3ccccc3)nn2c(C)c1Cl | inconclusive: 20.6 µM [cytotoxic, partial curve, poor fit] | –
O=C(N/N=C\c1ccc([N+](=O)[O-])s1)c1cncc(Br)c1 | active: 5.8 µM | –
Cn1c(=O)c2c(nc(N/N=C/c3ccc(OC(=O)c4ccco4)cc3)n2Cc2ccccc2)n(C)c1=O | inconclusive: 23.1 µM [cytotoxic, single point] | –
CCc1ccc(C(C(=O)NCc2ccccc2)N(C(=O)c2csnn2)C2CC2)cc1 (centres undefined) | inconclusive: 11.6 µM [rising, single point] | –
CCN(C)C1CN(Cc2cn(CCCC(=O)OC)nn2)S(=O)(=O)C1 (centres undefined) | inactive | –

# Remaining list, next part:

Compound,Potency,"activity change, negative = cytotoxic"
O=C(OCC(=O)N1CCN(Cc2ccccc2)CC1)c1cc(Cl)ccc1[N+](=O)[O-],inactive,–
Cc1ccc(C(=O)N2CCCC(N(C)Cc3ccccc3)C2)s1 (centres undefined),inactive,–
Cc1c(NC(=O)c2cc(-c3ccc(Cl)cc3)on2)c(=O)n(-c2ccccc2)n1C,inactive,–
Cc1ccc(NC(=O)c2cnc(N3CCN(c4ccccn4)CC3)c3ccccc23)c(Br)c1,"inconclusive: 29.1 µM [cytotoxic, single point]",–
CCOC(=O)c1cn(CC#N)c2cc(F)c(F)cc2c1=O,inactive,–
O=C(NN1C(=O)C2CC=C(Cl)CC2C1=O)c1ccncc1 (centres undefined),inactive,–
COc1ccc(-c2noc(-c3ccccc3C(=O)Nc3cccc(OC)c3)n2)cc1,"inconclusive: 29.1 µM [cytotoxic, single point]",–
O=c1[nH]n(-c2cccc3cccnc23)c(=O)c2ccccc12,inactive,–
CCc1ccc(Nc2cc(=O)n(C3CCCCC3)c(=O)[nH]2)cc1,"inconclusive: 29.1 µM [cytotoxic, single point]",–
COc1cccc(C(c2nnnn2C2CCCCC2)N2CCN(C/C=C/c3ccccc3)CC2)c1OC (centres undefined),"inconclusive: 18.4 µM [cytotoxic, single point]",–
Cc1ccc(-c2csc(=Nc3cccnc3)n2CCCn2ccnc2)cc1C,active: 16.4 µM,–
Cc1ccc(C)c(CN2CCC(CNC(=O)Nc3ccc(F)c(Cl)c3)CC2)c1,"inconclusive: 4.11 µM [cytotoxic, full curve, poor fit]",–
COc1ccc(-n2nc3cc(C)c(NC(=S)NC(=O)c4ccccc4C)cc3n2)cc1,inactive,–
CC(=O)Nc1c(Br)cc2c(c1Br)Cc1cc(Br)ccc1-2,"inconclusive: 29.1 µM [cytotoxic, single point]",–
COc1ccc(/C=N/N=C(\N)c2nonc2N)cc1,"inconclusive: 29.1 µM [cytotoxic, single point]",–
O=C(NCc1cccn1Cc1ccccc1)Nc1ccc(Br)cc1F,inactive,–
CC(C)(C)C(=O)N1CCN(S(=O)(=O)c2ccc3c(c2)OCCCO3)CC1,active: 14.6 µM,–
O=C(c1cccc(N2CCCC2=O)c1)N1CCN(c2cccc(Cl)c2)CC1,active: 5.17 µM,–
CCN1C(=O)[C@H]2[C@@H](c3ccc(-c4ccccc4)c(OC)c3)N[C@@](Cc3ccccc3)(C(=O)OC)[C@H]2C1=O,–,inconclusive: 30.7%
O=C(COC(=O)c1ccccc1OCCOc1ccccc1)Nc1ccc(Br)cc1,"inconclusive: 0.0092 µM [rising, full curve, poor fit]",–
CC(=O)Nc1cccc(-c2ccnc3c2CC(C)(C(=O)Nc2ccc(F)c(Cl)c2)O3)c1 (centres undefined),"inconclusive: 29.1 µM [cytotoxic, single point]",–
O=C(Nc1ccncc1)Nc1ccccn1,"inconclusive: 11.6 µM [rising, partial curve, poor fit]",–
O=C(CN1C(=O)c2cccc3cccc1c23)N1CCc2ccccc2C1,inactive,–
Cc1cccc2c1-c1sc(C(=O)Nc3cccc([N+](=O)[O-])c3C)cc1CO2,"inconclusive: 32.6 µM [cytotoxic, single point]",–
